Results deposited as PubChem BioAssay AID504786 (Drosophila RNAi Screening Center, 2011).
Assay: 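Fly genes required for HIF-dependent transcription when hypoxia is mimicked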 (primary screen). Cell system: Drosophila S2 cells with a stable HIF luciferase reporter. Knock-down reagent: long dsRNA against Drosophila genes, about 0.2 µg dsRNA per well of a 384-well plate. Time to read-out: three days of knock-down, then 20 h of DFO before reading. Challenge: desferrioxamine (DFO) at 100 µM, an iron chelator that mimics hypoxia, for 20 h. Read-out: 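Firefly luciferase driven by the mouse ldh-a hypoxia-response element, measured after 20 h of 100 µM DFO; z-scores per plate, higher means more signal lost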. Scale: z-score: higher = stronger loss of HIF reporter signal.
The screen tested about 21,000 reagents; this is a random part of those that have a named target and a result. 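Primary screen; positive scores mean lost reporter signal, so the sign may be inverted from the usual convention.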 Reagents against one gene are numbered here. Names joined by + are all predicted targets of the reagent. No sequences are given here.

gene knocked down | reagent | z-score, replicate 1 | z-score, replicate 2 | z-score, replicate 3 | z-score, replicate 4
CG11191 (GeneID 35765) | 1 | -0.4 | -0.6 | – | –
ND-MLRQ (GeneID 317928) | 1 | 1.1 | 0.9 | – | –
Cln3 (GeneID 39981) | 1 | -0.1 | -0.2 | – | –
Gbeta13F (GeneID 32544) | 1 | -0.4 | -0.3 | – | –
Lcp65Ac (GeneID 38708) | 1 | -0.3 | -0.2 | – | –
aph-1 (GeneID 33467) | 1 | -0.4 | -0.4 | – | –
Arms (GeneID 37433) | 1 | -0.4 | -0.8 | 0 | -0.3
Arms (GeneID 37433) | 2 | -0.2 | 0.1 | – | –
Arms (GeneID 37433) | 3 | -0.2 | -0.3 | – | –
Arms (GeneID 37433) | 4 | 0.8 | 3.3 | – | –
CG4325 (GeneID 31167) | 1 | 4.3 | 3.7 | – | –
alpha-Est1 (GeneID 40909) | 1 | -0.3 | -0.3 | – | –
Atg9 (GeneID 36821) | 1 | -0.3 | -0.5 | – | –
CG2113 (GeneID 38356) | 1 | -0.3 | -0.4 | – | –
LS2 (GeneID 37681) | 1 | -0.3 | -0.4 | – | –
ndl (GeneID 38738) | 1 | -0.2 | -0.5 | – | –
CG31688 + CG31687 | 1 | 0.9 | 1.6 | – | –
CG31551 (GeneID 318795) | 1 | -0.4 | -0.6 | -0.1 | -0.2
CG17746 (GeneID 38400) | 1 | -0.4 | -0.8 | – | –
Qtzl (GeneID 318990) | 1 | 0 | 0.4 | – | –
CG15628 (GeneID 33681) | 1 | -0.3 | 0.1 | – | –
CG15628 (GeneID 33681) | 2 | -0.3 | -0.1 | – | –
CG32269 + CG32270 | 1 | -0.3 | -0.4 | – | –
CG14072 (GeneID 34513) | 1 | -0.3 | -0.4 | – | –
Mgat4b (GeneID 39609) | 1 | -0.1 | 0 | – | –
CG13227 (GeneID 36179) | 1 | -0.2 | -0.2 | – | –
Ugt37A2 (GeneID 41573) | 1 | -0.2 | 0.2 | – | –
CG15754 (GeneID 32307) | 1 | 0.7 | 0.2 | – | –
CG11291 (GeneID 37541) | 1 | -0.2 | -0.2 | – | –
CG15909 (GeneID 35572) | 1 | 0.2 | -0.4 | – | –
CG4053 (GeneID 42070) | 1 | -0.2 | -0.2 | – | –
ltl (GeneID 38845) | 1 | -0.2 | 0.3 | – | –
ltl (GeneID 38845) | 2 | -0.2 | 0.5 | – | –
spn-B (GeneID 41746) | 1 | -0.1 | -0.2 | – | –
CG6462 (GeneID 38681) | 1 | -0.2 | -0.6 | – | –
CG13337 (GeneID 36518) | 1 | -0.2 | 0 | – | –
spen (GeneID 44205) | 1 | -0.3 | -0.1 | – | –
Poc1 (GeneID 39502) | 1 | -0.1 | 0.3 | – | –
CG5611 (GeneID 43318) | 1 | 0 | 0.7 | – | –
Lcp65Ab2 + Lcp65Ab1 | 1 | -0.3 | -0.7 | – | –
Lcp65Ab2 + Lcp65Ab1 | 2 | -0.3 | -0.5 | – | –
Vha100-3 (GeneID 246543) | 1 | 0.6 | -0.1 | – | –
Vha55 (GeneID 41550) | 1 | -0.2 | -0.1 | – | –
Pc (GeneID 40358) | 1 | -0.4 | 0.1 | – | –
Ugt35D1 (GeneID 43708) | 1 | -0.2 | 0.2 | – | –
CG30383 (GeneID 246583) | 1 | -0.1 | 0 | – | –
CG30349 (GeneID 35885) | 1 | 0.1 | 3.5 | – | –
CG30349 (GeneID 35885) | 2 | 0.2 | 2.9 | – | –
CG33784 (GeneID 3772181) | 1 | -0.4 | 0.2 | – | –
CG31128 (GeneID 318601) | 1 | -0.3 | -0.1 | – | –
CG14000 + bchs | 1 | 3.2 | 2.4 | – | –
CG5068 (GeneID 39032) | 1 | -0.4 | -0.6 | – | –
CG31464 (GeneID 318749) | 1 | -0.1 | -0.2 | – | –
NPF (GeneID 42018) | 1 | -0.8 | -0.8 | – | –
CG42355 (GeneID 317969) | 1 | 0.6 | -0.6 | – | –
CG11180 (GeneID 37330) | 1 | -0.1 | -0.2 | – | –
Afti (GeneID 41744) | 1 | -0.4 | -0.6 | – | –
CG17575 (GeneID 36414) | 1 | -0.3 | -0.5 | – | –
PK2-R1 (GeneID 41639) | 1 | -0.4 | -0.2 | – | –
S-Lap7 (GeneID 36524) | 1 | 0.2 | 0 | – | –
CG30127 (retired record) (GeneID 246473) | 1 | 0.1 | -0.2 | – | –
CG30127 (retired record) (GeneID 246473) | 2 | 2.6 | 1.5 | – | –
CG33673 (GeneID 3772423) | 1 | -0.5 | -0.1 | – | –
CG13972 (GeneID 43307) | 1 | 0.3 | 1.2 | – | –
CG1896 (GeneID 43738) | 1 | -0.2 | -0.3 | – | –
side-II (GeneID 3346206) | 1 | -0.6 | -0.2 | – | –
side-II (GeneID 3346206) | 2 | -0.3 | -0.1 | – | –
side-II (GeneID 3346206) | 3 | -0.4 | -0.3 | – | –
side-II (GeneID 3346206) | 4 | -0.2 | -0.6 | -0.6 | -0.2
side-II (GeneID 3346206) | 5 | -0.1 | -0.4 | – | –
CG13970 (GeneID 2768911) | 1 | 0 | 0 | – | –
mdu (GeneID 32201) | 1 | 0.2 | 0.5 | – | –
Vha68-3 (GeneID 34695) | 1 | -0.4 | -0.5 | – | –
Cox10 (GeneID 34394) | 1 | 0.3 | -0.1 | – | –
CG42729 (GeneID 3885667) | 1 | 0 | 0.3 | – | –
intr (GeneID 43397) | 1 | -0.3 | -0.2 | – | –
CG4404 (GeneID 32241) | 1 | -0.3 | -0.9 | – | –
CG10307 (GeneID 37477) | 1 | -0.2 | -0.1 | – | –
CG14689 (GeneID 41283) | 1 | -0.2 | 0.7 | – | –
CG4294 (GeneID 37579) | 1 | 0 | 0.2 | – | –
Cpr49Ah (GeneID 36354) | 1 | -0.1 | 0 | – | –
Atg7 (GeneID 37141) | 1 | -0.1 | 0.1 | – | –
Atg7 (GeneID 37141) | 2 | -0.4 | -0.2 | – | –
mu2 (GeneID 38257) | 1 | -0.2 | -0.3 | – | –
Ir62a (GeneID 3885628) | 1 | -0.2 | -0.3 | – | –
Ate1 (GeneID 37288) | 1 | 0.1 | -0.3 | – | –
CG12194 (GeneID 33685) | 1 | -0.3 | -0.2 | – | –
CG9876 (GeneID 37668) | 1 | -0.3 | -0.5 | – | –
Gmppb (GeneID 40599) | 1 | -0.4 | -0.2 | – | –
CG14100 (GeneID 40132) | 1 | -0.1 | 0 | – | –
CG7276 (GeneID 39668) | 1 | -0.2 | 0.1 | – | –
CG31544 (retired record) (GeneID 318792) | 1 | -0.4 | 0.1 | – | –
CG3708 (GeneID 31039) | 1 | -0.3 | -0.5 | – | –
Patj (GeneID 44100) | 1 | 4.5 | 4 | – | –
Mlh1 (GeneID 35796) | 1 | -0.4 | -0.3 | – | –
CG5498 (GeneID 40250) | 1 | -0.3 | -0.4 | – | –
Ogg1 (GeneID 31806) | 1 | -0.3 | -0.3 | – | –
Dfd (GeneID 40832) | 1 | -0.2 | -0.3 | – | –
Rh6 (GeneID 41889) | 1 | 0.2 | 0 | – | –
dmt (GeneID 41180) | 1 | 1.1 | 2.4 | – | –
Dd (GeneID 33107) | 1 | -0.2 | 0 | – | –
pita (GeneID 37730) | 1 | -0.1 | 0 | – | –
pita (GeneID 37730) | 2 | -0.4 | -0.4 | – | –
CG34315 + Orc3 | 1 | -0.2 | -0.3 | – | –
AstCC (GeneID 34538) | 1 | -0.4 | -0.7 | – | –
tun (GeneID 36743) | 1 | 0 | -0.2 | – | –
tun (GeneID 36743) | 2 | -0.2 | -0.2 | – | –

No new results follow: 11 of the entries above.
gene knocked down | reagent | z-score, replicate 1 | z-score, replicate 2 | z-score, replicate 3 | z-score, replicate 4
Atg7 (GeneID 37141) | 1 | -0.1 | 0.1 | – | –
Atg7 (GeneID 37141) | 2 | -0.4 | -0.2 | – | –
mu2 (GeneID 38257) | 1 | -0.2 | -0.3 | – | –
Ir62a (GeneID 3885628) | 1 | -0.2 | -0.3 | – | –
Ate1 (GeneID 37288) | 1 | 0.1 | -0.3 | – | –
CG12194 (GeneID 33685) | 1 | -0.3 | -0.2 | – | –
CG9876 (GeneID 37668) | 1 | -0.3 | -0.5 | – | –
Gmppb (GeneID 40599) | 1 | -0.4 | -0.2 | – | –
CG14100 (GeneID 40132) | 1 | -0.1 | 0 | – | –
CG7276 (GeneID 39668) | 1 | -0.2 | 0.1 | – | –
CG31544 (retired record) (GeneID 318792) | 1 | -0.4 | 0.1 | – | –
